Results published in paper PMC9354084 (ACS Chemical Neuroscience, 2022).

Experiment: PAMPA-BBB permeability assay
Settings: predicted from PAMPA Pe

With NS(=O)(=O)c1cc(C(=O)O)c(NCc2ccco2)cc1Cl [furosemide, reference compound] the CNS prediction was “CNS - (CNS -: low BBB permeation predicted, Pe (×10-6 cm s-1) < 2.0)”.
